# Results: the supplement of paper PMC6411743
# Sequences of proteins named here, by UniProt entry; tags and fusion partners are left off. A change or cut given only in a name is not applied to a line headed by its entry.
# UniProt O95870: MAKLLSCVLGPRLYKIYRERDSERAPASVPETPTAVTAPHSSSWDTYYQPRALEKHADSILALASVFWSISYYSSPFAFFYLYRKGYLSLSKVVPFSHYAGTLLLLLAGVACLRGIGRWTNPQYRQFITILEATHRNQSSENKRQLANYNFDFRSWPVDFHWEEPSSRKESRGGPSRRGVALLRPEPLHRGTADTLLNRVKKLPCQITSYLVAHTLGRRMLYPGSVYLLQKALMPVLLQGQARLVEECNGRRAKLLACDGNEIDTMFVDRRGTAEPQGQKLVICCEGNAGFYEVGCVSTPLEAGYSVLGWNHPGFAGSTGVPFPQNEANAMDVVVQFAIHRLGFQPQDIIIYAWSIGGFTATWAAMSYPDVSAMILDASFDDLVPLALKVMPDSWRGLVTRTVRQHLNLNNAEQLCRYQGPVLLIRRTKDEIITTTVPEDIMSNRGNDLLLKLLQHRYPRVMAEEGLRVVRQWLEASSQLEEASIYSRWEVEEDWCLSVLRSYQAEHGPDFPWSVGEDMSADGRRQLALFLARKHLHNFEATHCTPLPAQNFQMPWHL
# UniProt A6NDU8: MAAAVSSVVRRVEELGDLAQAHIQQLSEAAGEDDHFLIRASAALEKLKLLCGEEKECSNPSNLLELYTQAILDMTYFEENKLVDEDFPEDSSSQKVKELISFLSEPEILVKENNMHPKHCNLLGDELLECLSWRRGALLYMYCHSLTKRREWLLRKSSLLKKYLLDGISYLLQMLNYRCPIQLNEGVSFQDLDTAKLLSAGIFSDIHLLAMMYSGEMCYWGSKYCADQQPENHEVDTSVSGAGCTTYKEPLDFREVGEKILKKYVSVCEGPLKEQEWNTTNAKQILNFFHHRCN
# UniProt Q9Y6G5, whole entry: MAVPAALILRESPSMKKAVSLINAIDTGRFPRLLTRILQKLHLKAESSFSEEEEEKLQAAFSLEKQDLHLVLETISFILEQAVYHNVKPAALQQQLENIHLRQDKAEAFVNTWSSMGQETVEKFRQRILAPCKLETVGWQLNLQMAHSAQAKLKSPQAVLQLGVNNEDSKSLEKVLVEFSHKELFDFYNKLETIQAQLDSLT
# UniProt Q13506: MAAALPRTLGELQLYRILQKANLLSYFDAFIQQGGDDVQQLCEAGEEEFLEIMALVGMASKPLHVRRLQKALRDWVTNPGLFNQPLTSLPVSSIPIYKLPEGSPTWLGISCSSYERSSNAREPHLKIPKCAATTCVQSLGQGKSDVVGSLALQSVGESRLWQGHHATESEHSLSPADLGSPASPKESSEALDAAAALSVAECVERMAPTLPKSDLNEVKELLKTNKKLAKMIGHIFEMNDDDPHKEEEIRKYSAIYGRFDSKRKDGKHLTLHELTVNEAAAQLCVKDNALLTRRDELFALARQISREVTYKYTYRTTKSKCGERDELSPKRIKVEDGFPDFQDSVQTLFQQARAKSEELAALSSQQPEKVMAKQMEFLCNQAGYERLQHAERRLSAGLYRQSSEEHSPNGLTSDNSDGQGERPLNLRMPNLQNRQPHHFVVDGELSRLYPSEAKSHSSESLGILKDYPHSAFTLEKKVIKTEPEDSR
# UniProt A6NHX0: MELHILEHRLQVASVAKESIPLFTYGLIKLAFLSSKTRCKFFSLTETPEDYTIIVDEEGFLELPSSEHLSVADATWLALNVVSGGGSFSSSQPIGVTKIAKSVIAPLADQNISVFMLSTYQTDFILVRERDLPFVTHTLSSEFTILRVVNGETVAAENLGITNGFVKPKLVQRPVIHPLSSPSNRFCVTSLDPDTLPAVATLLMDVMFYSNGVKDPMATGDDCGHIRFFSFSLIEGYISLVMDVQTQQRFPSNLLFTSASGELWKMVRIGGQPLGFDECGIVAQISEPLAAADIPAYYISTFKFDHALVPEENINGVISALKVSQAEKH
# UniProt Q9UM13, whole entry: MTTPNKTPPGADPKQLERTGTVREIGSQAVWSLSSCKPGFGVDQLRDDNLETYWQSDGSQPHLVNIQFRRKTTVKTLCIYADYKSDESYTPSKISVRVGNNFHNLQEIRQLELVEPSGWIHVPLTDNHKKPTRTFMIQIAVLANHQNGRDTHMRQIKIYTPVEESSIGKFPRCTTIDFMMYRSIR
# UniProt Q96D46: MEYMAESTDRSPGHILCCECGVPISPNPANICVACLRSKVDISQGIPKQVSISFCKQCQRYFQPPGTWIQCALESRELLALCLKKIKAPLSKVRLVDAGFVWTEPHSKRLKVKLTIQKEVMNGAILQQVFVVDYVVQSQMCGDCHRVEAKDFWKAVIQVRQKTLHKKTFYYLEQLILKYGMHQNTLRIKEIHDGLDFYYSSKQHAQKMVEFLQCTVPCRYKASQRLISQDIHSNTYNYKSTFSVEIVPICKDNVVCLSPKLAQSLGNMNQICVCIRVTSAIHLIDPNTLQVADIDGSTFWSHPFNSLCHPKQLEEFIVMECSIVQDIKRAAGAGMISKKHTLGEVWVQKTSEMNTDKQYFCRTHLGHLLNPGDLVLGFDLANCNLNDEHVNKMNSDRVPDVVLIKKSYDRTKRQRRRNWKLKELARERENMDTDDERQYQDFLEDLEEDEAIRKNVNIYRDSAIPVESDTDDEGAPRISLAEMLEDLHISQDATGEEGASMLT
# UniProt P14406, whole entry: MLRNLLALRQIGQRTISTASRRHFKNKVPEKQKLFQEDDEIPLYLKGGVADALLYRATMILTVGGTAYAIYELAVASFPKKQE
# UniProt P55196: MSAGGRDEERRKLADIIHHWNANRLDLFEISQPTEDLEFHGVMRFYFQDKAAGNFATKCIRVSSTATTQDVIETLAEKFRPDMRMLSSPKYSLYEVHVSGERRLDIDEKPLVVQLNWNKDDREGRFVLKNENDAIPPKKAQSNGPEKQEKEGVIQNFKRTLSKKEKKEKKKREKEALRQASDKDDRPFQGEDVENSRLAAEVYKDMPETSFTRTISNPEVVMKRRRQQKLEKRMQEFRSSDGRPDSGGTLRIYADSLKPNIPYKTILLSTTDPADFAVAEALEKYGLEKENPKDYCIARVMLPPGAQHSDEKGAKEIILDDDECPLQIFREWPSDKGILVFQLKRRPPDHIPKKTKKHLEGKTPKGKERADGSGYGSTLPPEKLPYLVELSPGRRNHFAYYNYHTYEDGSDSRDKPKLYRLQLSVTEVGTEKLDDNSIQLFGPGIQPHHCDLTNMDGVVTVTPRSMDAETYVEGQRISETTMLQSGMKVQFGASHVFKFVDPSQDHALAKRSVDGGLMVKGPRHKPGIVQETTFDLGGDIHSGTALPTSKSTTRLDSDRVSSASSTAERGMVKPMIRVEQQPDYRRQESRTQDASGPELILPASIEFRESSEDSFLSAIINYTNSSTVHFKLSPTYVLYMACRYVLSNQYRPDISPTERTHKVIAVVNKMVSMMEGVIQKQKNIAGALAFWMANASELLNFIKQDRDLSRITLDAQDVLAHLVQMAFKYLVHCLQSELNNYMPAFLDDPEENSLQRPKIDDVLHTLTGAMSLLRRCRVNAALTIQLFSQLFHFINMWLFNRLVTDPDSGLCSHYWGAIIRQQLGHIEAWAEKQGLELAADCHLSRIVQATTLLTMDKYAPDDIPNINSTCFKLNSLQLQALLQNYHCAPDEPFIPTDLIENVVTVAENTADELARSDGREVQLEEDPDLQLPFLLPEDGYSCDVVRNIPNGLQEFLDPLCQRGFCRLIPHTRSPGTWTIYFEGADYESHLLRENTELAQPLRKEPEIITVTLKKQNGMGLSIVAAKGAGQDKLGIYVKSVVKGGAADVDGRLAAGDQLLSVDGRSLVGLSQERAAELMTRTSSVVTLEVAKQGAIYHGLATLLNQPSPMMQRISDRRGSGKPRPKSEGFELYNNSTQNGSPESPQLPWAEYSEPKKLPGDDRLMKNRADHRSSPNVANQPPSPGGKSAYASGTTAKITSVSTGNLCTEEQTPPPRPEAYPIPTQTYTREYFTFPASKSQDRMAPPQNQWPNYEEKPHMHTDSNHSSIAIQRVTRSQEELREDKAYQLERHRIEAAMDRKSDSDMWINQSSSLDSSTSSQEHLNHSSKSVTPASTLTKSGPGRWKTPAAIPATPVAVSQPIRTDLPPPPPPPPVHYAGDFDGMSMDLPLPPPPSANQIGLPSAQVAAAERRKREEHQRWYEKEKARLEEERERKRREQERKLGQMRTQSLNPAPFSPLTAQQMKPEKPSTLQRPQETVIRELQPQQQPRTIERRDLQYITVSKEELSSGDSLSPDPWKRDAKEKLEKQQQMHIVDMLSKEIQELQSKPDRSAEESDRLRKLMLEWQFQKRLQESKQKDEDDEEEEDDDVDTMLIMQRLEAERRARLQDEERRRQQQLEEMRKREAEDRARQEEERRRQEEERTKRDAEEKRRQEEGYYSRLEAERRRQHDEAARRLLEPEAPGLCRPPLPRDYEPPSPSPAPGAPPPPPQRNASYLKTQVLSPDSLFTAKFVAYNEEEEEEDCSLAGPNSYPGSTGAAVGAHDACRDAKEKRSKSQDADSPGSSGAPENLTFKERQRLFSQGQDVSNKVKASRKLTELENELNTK
# UniProt Q9Y4K1: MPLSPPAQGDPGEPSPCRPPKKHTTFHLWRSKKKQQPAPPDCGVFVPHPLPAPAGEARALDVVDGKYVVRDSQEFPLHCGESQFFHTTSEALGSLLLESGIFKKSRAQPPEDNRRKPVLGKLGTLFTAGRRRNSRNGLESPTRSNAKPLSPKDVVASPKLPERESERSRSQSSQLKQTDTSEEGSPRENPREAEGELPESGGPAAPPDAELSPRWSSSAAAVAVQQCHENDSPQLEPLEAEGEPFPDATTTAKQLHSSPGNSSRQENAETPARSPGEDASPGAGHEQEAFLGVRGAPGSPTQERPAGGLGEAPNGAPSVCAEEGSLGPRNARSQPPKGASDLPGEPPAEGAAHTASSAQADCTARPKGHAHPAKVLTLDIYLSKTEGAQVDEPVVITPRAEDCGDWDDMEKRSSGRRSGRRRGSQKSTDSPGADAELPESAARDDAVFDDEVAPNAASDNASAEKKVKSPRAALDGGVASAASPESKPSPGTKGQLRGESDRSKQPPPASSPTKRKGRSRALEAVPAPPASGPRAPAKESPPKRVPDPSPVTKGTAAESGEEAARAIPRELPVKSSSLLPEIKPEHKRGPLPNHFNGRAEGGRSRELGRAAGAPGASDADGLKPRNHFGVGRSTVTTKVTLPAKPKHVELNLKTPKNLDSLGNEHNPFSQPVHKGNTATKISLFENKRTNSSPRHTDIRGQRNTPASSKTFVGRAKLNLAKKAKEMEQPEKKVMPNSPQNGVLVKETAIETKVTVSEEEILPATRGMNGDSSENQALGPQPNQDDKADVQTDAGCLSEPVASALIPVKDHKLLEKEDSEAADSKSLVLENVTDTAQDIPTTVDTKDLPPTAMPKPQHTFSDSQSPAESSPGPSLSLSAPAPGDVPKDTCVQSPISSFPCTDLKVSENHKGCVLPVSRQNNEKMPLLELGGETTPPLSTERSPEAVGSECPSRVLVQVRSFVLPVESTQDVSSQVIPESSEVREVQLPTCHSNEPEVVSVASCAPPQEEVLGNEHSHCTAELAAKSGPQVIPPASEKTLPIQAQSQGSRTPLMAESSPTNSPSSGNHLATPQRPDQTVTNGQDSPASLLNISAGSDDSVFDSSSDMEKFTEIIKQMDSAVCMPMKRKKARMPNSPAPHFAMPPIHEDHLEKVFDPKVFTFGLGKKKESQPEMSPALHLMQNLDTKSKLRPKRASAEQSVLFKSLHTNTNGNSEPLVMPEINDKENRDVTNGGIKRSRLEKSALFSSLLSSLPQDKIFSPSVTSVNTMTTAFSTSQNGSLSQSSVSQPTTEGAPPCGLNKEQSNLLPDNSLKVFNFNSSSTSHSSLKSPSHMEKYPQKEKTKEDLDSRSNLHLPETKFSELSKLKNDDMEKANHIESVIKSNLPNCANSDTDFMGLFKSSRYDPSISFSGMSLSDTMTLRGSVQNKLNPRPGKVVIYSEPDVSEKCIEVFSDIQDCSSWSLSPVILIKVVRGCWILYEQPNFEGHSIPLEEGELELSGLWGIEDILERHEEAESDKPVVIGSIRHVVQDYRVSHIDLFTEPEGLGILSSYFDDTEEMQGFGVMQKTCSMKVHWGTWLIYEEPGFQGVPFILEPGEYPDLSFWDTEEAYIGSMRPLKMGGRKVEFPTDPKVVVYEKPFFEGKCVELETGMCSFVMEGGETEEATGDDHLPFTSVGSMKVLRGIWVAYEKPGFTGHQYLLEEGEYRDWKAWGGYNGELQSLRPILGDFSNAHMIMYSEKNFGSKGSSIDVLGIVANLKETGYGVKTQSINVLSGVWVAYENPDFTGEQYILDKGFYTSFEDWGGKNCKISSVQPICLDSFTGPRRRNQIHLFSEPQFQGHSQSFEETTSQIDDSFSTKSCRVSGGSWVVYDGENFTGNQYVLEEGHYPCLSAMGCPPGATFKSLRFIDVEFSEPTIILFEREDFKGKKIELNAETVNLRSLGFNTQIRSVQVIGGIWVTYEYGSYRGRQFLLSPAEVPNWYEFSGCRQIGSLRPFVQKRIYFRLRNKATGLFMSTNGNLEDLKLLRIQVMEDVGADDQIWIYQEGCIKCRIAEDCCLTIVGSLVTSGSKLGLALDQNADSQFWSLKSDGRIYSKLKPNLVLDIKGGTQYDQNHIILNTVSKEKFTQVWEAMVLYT
# ± gives the standard deviation of the averaged measurements. The list shows a part of the results, in another mix than the full data.
# Compound: Nc1ncnc2c1ncn2[C@@H]1O[C@H](COP(=O)(O)OP(=O)(O)OP(=O)(O)O)[C@@H](O)[C@H]1O [adenosine triphosphate]
# Test: NP40-soluble protein abundance relative to vehicle (solubility fold change) (ratio); higher = more soluble protein in presence of ATP
# Method in brief: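 Data come from three independent experiments in which Dounce-homogenised Jurkat crude lysate was treated at eight concentrations from 0.1 to 10 mM. Treatment ran 10 min at room temperature and then 3 min at 37 °C, after which 0.8% NP40 and benzonase were added for 60 min at 4 °C before ultracentrifugation. The supernatant underwent TMT labelling and LC-MS/MS, and vsn-normalised intensities were expressed as fold change against the detergent-processed vehicle in each replicate.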
Target,NP40-soluble protein abundance (concentration: 1mM),NP40-soluble protein abundance (concentration: 2mM),NP40-soluble protein abundance (concentration: 4mM),NP40-soluble protein abundance (concentration: 6mM),NP40-soluble protein abundance (concentration: 8mM),NP40-soluble protein abundance (concentration: 10mM)
A0A0G2JJD3|O95870 (UniProt O95870),1.02 ± 0.1,1.03 ± 0.095,1.04 ± 0.1,0.945 ± 0.13,1.08 ± 0.031,1.06 ± 0.018
A6NFX8 and related entries (UniProt Q9UKK9),1.04 ± 0.088,1 ± 0.059,0.98 ± 0.052,0.961 ± 0.045,1 ± 0.049,0.973 ± 0.036
C9JNW5 and related entries (UniProt P83731),0.838 ± 0.044,0.819 ± 0.056,0.77 ± 0.051,0.745 ± 0.08,0.631 ± 0.063,0.758 ± 0.056
B7Z836 and related entries (UniProt Q9NYB9),0.877 ± 0.099,0.866 ± 0.055,0.861 ± 0.071,0.892 ± 0.078,0.812 ± 0.049,0.812 ± 0.072
C9J4Z3 and related entries (UniProt P61513),0.958 ± 0.047,0.982 ± 0.098,0.979 ± 0.083,0.918 ± 0.14,0.901 ± 0.13,0.986 ± 0.084
A6NIW2 and related entries (UniProt Q5JSL3),1.06 ± 0.087,1.01 ± 0.064,1.02 ± 0.072,0.972 ± 0.049,1.05 ± 0.056,0.992 ± 0.019
C5orf51 (UniProt A6NDU8),1.02 ± 0.013,1.02 ± 0.099,1.01 ± 0.054,0.97 ± 0.012,0.974 ± 0.055,0.937 ± 0.062
B4DY09 and related entries (UniProt Q12905),1.11 ± 0.081,1.14 ± 0.062,1.19 ± 0.055,1.21 ± 0.022,1.31 ± 0.053,1.34 ± 0.091
A0A0U1RQQ9|Q6P3W7 (UniProt Q6P3W7),0.9883 ± 0.0068,0.987 ± 0.05,0.971 ± 0.026,0.98 ± 0.033,0.957 ± 0.03,0.994 ± 0.057
D6RC04 and related entries (UniProt Q9Y6G5),0.9692 ± 0.0062,0.964 ± 0.013,0.965 ± 0.013,0.925 ± 0.025,0.981 ± 0.069,0.955 ± 0.018
C9J185 and related entries (UniProt Q9NZJ5),1.02 ± 0.11,1.01 ± 0.048,1.04 ± 0.2,0.949 ± 0.081,1.02 ± 0.2,1.06 ± 0.064
C9J7Z4 and related entries (UniProt Q8NCE0),1.04 ± 0.066,1.05 ± 0.024,1.06 ± 0.016,1.04 ± 0.025,1.05 ± 0.065,1 ± 0.038
B0YIW6 and related entries (UniProt P48444),1.02 ± 0.044,0.998 ± 0.025,0.984 ± 0.038,0.952 ± 0.035,0.999 ± 0.025,0.971 ± 0.031
A8MWD9 and related entries (UniProt P62308+A8MWD9),1.27 ± 0.019,1.37 ± 0.015,1.44 ± 0.026,1.53 ± 0.03,1.59 ± 0.15,1.52 ± 0.083
B8ZZS2 and related entries (UniProt Q13506),1.05 ± 0.14,1.05 ± 0.079,1.02 ± 0.14,0.941 ± 0.11,0.986 ± 0.12,1 ± 0.064
UniProt A6NHX0,1.05 ± 0.087,0.9126 ± 0.0082,0.93 ± 0.014,0.9445 ± 0.0071,1.01 ± 0.024,0.922 ± 0.03
D6RA92 and related entries (UniProt Q9UM13),1.13 ± 0.2,1.13 ± 0.043,1.08 ± 0.026,1.08 ± 0.012,1.1 ± 0.071,1.11 ± 0.083
C9JSZ1 and related entries (UniProt Q96AE4),0.95 ± 0.059,0.952 ± 0.019,0.927 ± 0.0085,0.985 ± 0.03,0.914 ± 0.017,0.893 ± 0.041
C9JA08 and related entries (UniProt Q96D46),0.913 ± 0.022,0.916 ± 0.043,0.908 ± 0.052,0.877 ± 0.05,0.89 ± 0.075,0.88 ± 0.052
D6RGV5 and related entries (UniProt P14406),0.947 ± 0.062,0.926 ± 0.098,0.95 ± 0.051,0.911 ± 0.048,0.928 ± 0.044,0.819 ± 0.15
B4E0E3 and related entries (UniProt Q9H6X4),0.893 ± 0.082,0.931 ± 0.068,0.898 ± 0.044,0.961 ± 0.018,0.888 ± 0.047,0.851 ± 0.078
B1AMW1 and related entries (UniProt P19256),0.917 ± 0.12,0.952 ± 0.092,0.932 ± 0.084,0.937 ± 0.12,0.8596 ± 0.006,0.844 ± 0.1
A0A0G2JIW1|P0DMV8 and related entries (UniProt P0DMV9+P0DMV8),1.02 ± 0.055,1.01 ± 0.017,0.978 ± 0.033,1.03 ± 0.013,0.982 ± 0.027,0.966 ± 0.012
B4DLJ1 and related entries (UniProt Q15853),0.937 ± 0.05,0.949 ± 0.044,0.946 ± 0.031,1 ± 0.027,0.934 ± 0.048,0.932 ± 0.016
C9JFR7 and related entries (UniProt P99999),0.964 ± 0.033,0.957 ± 0.09,0.941 ± 0.05,0.982 ± 0.13,0.916 ± 0.052,0.911 ± 0.073
A8MQ02 and related entries (UniProt P55196),1.05 ± 0.065,1.06 ± 0.082,1.08 ± 0.1,1.08 ± 0.048,1.02 ± 0.035,1.03 ± 0.052
A2IDC6 and related entries (UniProt Q13084),1.01 ± 0.067,0.857 ± 0.048,0.838 ± 0.16,0.826 ± 0.28,0.901 ± 0.24,0.797 ± 0.17
C9J9P8 and related entries (UniProt Q969M7),0.915 ± 0.077,0.938 ± 0.046,0.902 ± 0.073,0.93 ± 0.044,0.907 ± 0.059,0.86 ± 0.13
B4E3Q4 and related entries (UniProt Q9NZK5),1.03 ± 0.032,0.9992 ± 0.0063,0.99 ± 0.018,0.948 ± 0.055,1 ± 0.041,0.991 ± 0.039
A0A0J9YWL0|Q9Y4K1 (UniProt Q9Y4K1),1 ± 0.018,0.998 ± 0.015,1 ± 0.02,1.02 ± 0.021,1.02 ± 0.025,1.03 ± 0.031

# Taken from the listing for reference:
Target,NP40-soluble protein abundance (concentration: 1mM),NP40-soluble protein abundance (concentration: 2mM),NP40-soluble protein abundance (concentration: 4mM),NP40-soluble protein abundance (concentration: 6mM),NP40-soluble protein abundance (concentration: 8mM),NP40-soluble protein abundance (concentration: 10mM)
B4DLJ1 and related entries (UniProt Q15853),0.937 ± 0.05,0.949 ± 0.044,0.946 ± 0.031,1 ± 0.027,0.934 ± 0.048,0.932 ± 0.016
C9JFR7 and related entries (UniProt P99999),0.964 ± 0.033,0.957 ± 0.09,0.941 ± 0.05,0.982 ± 0.13,0.916 ± 0.052,0.911 ± 0.073
A8MQ02 and related entries (UniProt P55196),1.05 ± 0.065,1.06 ± 0.082,1.08 ± 0.1,1.08 ± 0.048,1.02 ± 0.035,1.03 ± 0.052
A2IDC6 and related entries (UniProt Q13084),1.01 ± 0.067,0.857 ± 0.048,0.838 ± 0.16,0.826 ± 0.28,0.901 ± 0.24,0.797 ± 0.17
C9J9P8 and related entries (UniProt Q969M7),0.915 ± 0.077,0.938 ± 0.046,0.902 ± 0.073,0.93 ± 0.044,0.907 ± 0.059,0.86 ± 0.13
B4E3Q4 and related entries (UniProt Q9NZK5),1.03 ± 0.032,0.9992 ± 0.0063,0.99 ± 0.018,0.948 ± 0.055,1 ± 0.041,0.991 ± 0.039
A0A0J9YWL0|Q9Y4K1 (UniProt Q9Y4K1),1 ± 0.018,0.998 ± 0.015,1 ± 0.02,1.02 ± 0.021,1.02 ± 0.025,1.03 ± 0.031
